# Assay results reported in the supplement of paper PMC8728848.
# The list shows a part of the results.
# Assays:
# Assay in all cases: glycan array binding signal (z-score within array); higher = stronger binding
# Conditions in all cases: glycan notation: IUPAC condensed, linker removed
# Fuc(a1-3)GlcNAc = target: Fuc(a1-3)GlcNAc
# How it was run: (§1)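 The binding signal is a Z-score computed within each array. Data were drawn from 3228 arrays in the Consortium for Functional Glycomics database, restricted to those with a known protein sequence. Scores were averaged over arrays of the same protein sequence at different concentrations or buffers, and over linkers, and negative values can be taken as non-binding.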
# [1] = target: Fuc(a1-3)[Gal(b1-4)]Glc6S
# How it was run: as §1
# [2] = target: Fuc(a1-3)[Gal(b1-4)]GlcNAc
# How it was run: as §1
# [3] = target: Fuc(a1-3)[Gal(b1-4)]GlcNAc(b1-2)Man
# How it was run: as §1
# [4] = target: Fuc(a1-3)[Gal(b1-4)]GlcNAc(b1-2)Man(a1-3)[Fuc(a1-3)[Gal(b1-4)]GlcNAc(b1-2)Man(a1-6)]Man(b1-4)GlcNAc(b1-4)GlcNAc
# How it was run: as §1
# [5] = target: Fuc(a1-3)[Gal(b1-4)]GlcNAc(b1-2)Man(a1-3)[Fuc(a1-3)[Gal(b1-4)]GlcNAc(b1-2)Man(a1-6)]Man(b1-4)GlcNAc(b1-4)[Fuc(a1-6)]GlcNAc
# How it was run: as §1
# [6] = target: Fuc(a1-3)[Gal(b1-4)]GlcNAc(b1-3)Gal(b1-3)[Fuc(a1-4)]GlcNAc
# How it was run: as §1
# [7] = target: Fuc(a1-3)[Gal(b1-4)]GlcNAc(b1-3)Gal(b1-4)[Fuc(a1-3)]GlcNAc
# How it was run: as §1
# [8] = target: Fuc(a1-3)[Gal(b1-4)]GlcNAc(b1-3)Gal(b1-4)[Fuc(a1-3)]GlcNAc(b1-3)Gal(b1-4)[Fuc(a1-3)]GlcNAc
# How it was run: as §1
# [9] = target: Fuc(a1-3)[Gal(b1-4)]GlcNAc(b1-3)GalNAc
# How it was run: as §1
# [10] = target: Fuc(a1-3)[Gal(b1-4)]GlcNAc(b1-6)GalNAc
# How it was run: as §1
# [11] = target: Fuc(a1-3)[Gal(b1-4)]GlcNAc(b1-6)[Gal(b1-3)GlcNAc(b1-3)]Gal(b1-4)Glc
# How it was run: as §1
# [12] = target: Fuc(a1-3)[Gal(b1-4)]GlcNAc6S
# How it was run: as §1
# [13] = target: Fuc(a1-3)[Gal3S(b1-4)]Glc
# How it was run: as §1
# [14] = target: Fuc(a1-3)[Gal3S(b1-4)]GlcNAc
# How it was run: as §1
# [15] = target: Fuc(a1-3)[Gal3S(b1-4)]GlcNAc6S
# How it was run: as §1
# [16] = target: Fuc(a1-3)[GalNAc(b1-4)]GlcNAc
# How it was run: as §1
# [17] = target: Fuc(a1-3)[GalNAc(b1-4)]GlcNAc6S
# How it was run: as §1
# Fuc(a1-4)GlcNAc = target: Fuc(a1-4)GlcNAc
# How it was run: as §1
# Fuc(b1-3)GlcNAc = target: Fuc(b1-3)GlcNAc
# How it was run: as §1
# Gal(a1-2)Gal = target: Gal(a1-2)Gal
# How it was run: as §1
# Gal(a1-3)Gal = target: Gal(a1-3)Gal
# How it was run: as §1
# Gal(a1-3)Gal(b1-3)GlcNAc = target: Gal(a1-3)Gal(b1-3)GlcNAc
# How it was run: as §1
# [18] = target: Gal(a1-3)Gal(b1-3)GlcNAc(b1-2)Man
# How it was run: as §1
# [19] = target: Gal(a1-3)Gal(b1-3)GlcNAc(b1-2)Man(a1-3)[Gal(a1-3)Gal(b1-3)GlcNAc(b1-2)Man(a1-6)]Man(b1-4)GlcNAc(b1-4)GlcNAc
# How it was run: as §1
# [20] = target: Gal(a1-3)Gal(b1-3)GlcNAc(b1-3)GalNAc
# How it was run: as §1
# [21] = target: Gal(a1-3)Gal(b1-3)GlcNAc(b1-6)GalNAc
# How it was run: as §1
# [22] = target: Gal(a1-3)Gal(b1-3)[Fuc(a1-4)]GlcNAc(b1-2)Man(a1-3)[Gal(a1-3)Gal(b1-3)[Fuc(a1-4)]GlcNAc(b1-2)Man(a1-6)]Man(b1-4)GlcNAc(b1-4)GlcNAc
# How it was run: as §1
# Gal(a1-3)Gal(b1-4)Glc = target: Gal(a1-3)Gal(b1-4)Glc
# How it was run: as §1
# Gal(a1-3)Gal(b1-4)GlcNAc = target: Gal(a1-3)Gal(b1-4)GlcNAc
# How it was run: as §1
# [23] = target: Gal(a1-3)Gal(b1-4)GlcNAc(b1-2)Man
# How it was run: as §1
# [24] = target: Gal(a1-3)Gal(b1-4)GlcNAc(b1-2)Man(a1-3)[Gal(a1-3)Gal(b1-4)GlcNAc(b1-2)Man(a1-6)]Man(b1-4)GlcNAc(b1-4)GlcNAc
# How it was run: as §1
# [25] = target: Gal(a1-3)Gal(b1-4)GlcNAc(b1-3)GalNAc
# How it was run: as §1
# [26] = target: Gal(a1-3)Gal(b1-4)GlcNAc(b1-6)GalNAc
# How it was run: as §1
# [27] = target: Gal(a1-3)Gal(b1-4)[Fuc(a1-3)]GlcNAc
# How it was run: as §1
# [28] = target: Gal(a1-3)Gal(b1-4)[Fuc(a1-3)]GlcNAc(b1-2)Man(a1-3)[Gal(a1-3)Gal(b1-4)[Fuc(a1-3)]GlcNAc(b1-2)Man(a1-6)]Man(b1-4)GlcNAc(b1-4)GlcNAc
# How it was run: as §1
# Gal(a1-3)GalNAc = target: Gal(a1-3)GalNAc
# How it was run: as §1
binder,measurement,setting,value
GS7807G-bfa-506-18-506 (Bacteroides fragilis) (protein) ASCDKFDEINTDPDATTKVTSSLLATGLLLDITSSSASKSFIYDELLAKQMAWGESMEDYQYNVFGRSGFGGYTTLINAQKMVESVSDDNVNAYDGLAHFIKAYKIFYMSMEMGDLPYEEALQGELGLVRPKYNTQKEVMNFILSDLETAYELFSTAKDFDGDPILGGSISKWKKATTAFQLKVLMHLSKKESDADLKVKERFARIVASGSLMESNEDNLQMKYADKANTVYPFHNTNTKHAGYAMLSTMLIDKFKATGDIRMFYYAKPAKAKLNEGVTADSWDAYIGTDPSLPFEQIEKAYATEQYSGFNARYTDYPSGEPVVRLGYAEQNFILAEAAVRGWISGDASAYYKKAIRAHMEFIASNTPDEEVYHHGHPITEEAIAAFLETPAIQLSGEKEEDIEKILTQRYLASFMQHPYDVYYDYRRTGYPVLPINPATNRNTMNDRLPMRWMYPKSESDYNLEHQNEALERQFGGVDDVNKLMWILQ,glycan array binding signal (z-score),Fuc(a1-3)GlcNAc,-0.665
same,glycan array binding signal (z-score),[1],-0.004
same,glycan array binding signal (z-score),[2],-0.4
same,glycan array binding signal (z-score),[3],0.315
same,glycan array binding signal (z-score),[4],0.726
same,glycan array binding signal (z-score),[5],1.51
same,glycan array binding signal (z-score),[6],-0.716
same,glycan array binding signal (z-score),[7],-0.387
same,glycan array binding signal (z-score),[8],-0.566
same,glycan array binding signal (z-score),[9],-0.099
same,glycan array binding signal (z-score),[10],0.935
same,glycan array binding signal (z-score),[11],0.414
same,glycan array binding signal (z-score),[12],-0.287
same,glycan array binding signal (z-score),[13],-0.945
same,glycan array binding signal (z-score),[14],0.195
same,glycan array binding signal (z-score),[15],0.069
same,glycan array binding signal (z-score),[16],0.279
same,glycan array binding signal (z-score),[17],0.588
same,glycan array binding signal (z-score),Fuc(a1-4)GlcNAc,-0.751
same,glycan array binding signal (z-score),Fuc(b1-3)GlcNAc,-0.561
same,glycan array binding signal (z-score),Gal(a1-2)Gal,-0.863
same,glycan array binding signal (z-score),Gal(a1-3)Gal,-0.571
same,glycan array binding signal (z-score),Gal(a1-3)Gal(b1-3)GlcNAc,-0.248
same,glycan array binding signal (z-score),[18],0.779
same,glycan array binding signal (z-score),[19],4.66
same,glycan array binding signal (z-score),[20],0.034
same,glycan array binding signal (z-score),[21],1.31
same,glycan array binding signal (z-score),[22],1.08
same,glycan array binding signal (z-score),Gal(a1-3)Gal(b1-4)Glc,0.171
same,glycan array binding signal (z-score),Gal(a1-3)Gal(b1-4)GlcNAc,0.15
same,glycan array binding signal (z-score),[23],-0.042
same,glycan array binding signal (z-score),[24],2.43
same,glycan array binding signal (z-score),[25],1.54
same,glycan array binding signal (z-score),[26],0.531
same,glycan array binding signal (z-score),[27],-0.692
same,glycan array binding signal (z-score),[28],0.104
same,glycan array binding signal (z-score),Gal(a1-3)GalNAc,-0.513

# An excerpt of these results, with tabs:
binder	measurement	setting	value
GS7807G-bfa-506-18-506 (Bacteroides fragilis) (protein) ASCDKFDEINTDPDATTKVTSSLLATGLLLDITSSSASKSFIYDELLAKQMAWGESMEDYQYNVFGRSGFGGYTTLINAQKMVESVSDDNVNAYDGLAHFIKAYKIFYMSMEMGDLPYEEALQGELGLVRPKYNTQKEVMNFILSDLETAYELFSTAKDFDGDPILGGSISKWKKATTAFQLKVLMHLSKKESDADLKVKERFARIVASGSLMESNEDNLQMKYADKANTVYPFHNTNTKHAGYAMLSTMLIDKFKATGDIRMFYYAKPAKAKLNEGVTADSWDAYIGTDPSLPFEQIEKAYATEQYSGFNARYTDYPSGEPVVRLGYAEQNFILAEAAVRGWISGDASAYYKKAIRAHMEFIASNTPDEEVYHHGHPITEEAIAAFLETPAIQLSGEKEEDIEKILTQRYLASFMQHPYDVYYDYRRTGYPVLPINPATNRNTMNDRLPMRWMYPKSESDYNLEHQNEALERQFGGVDDVNKLMWILQ	glycan array binding signal (z-score)	[9]	-0.099
same	glycan array binding signal (z-score)	[10]	0.935
same	glycan array binding signal (z-score)	[11]	0.414
